Assay: Solubility of the drug substance in water
Assay type: physicochemical
Excerpt: Sesame oil was selected as an excipient to solubilize the drug substance.

With `C=C(C)[C@@H]1CCC(C)=C[C@H]1c1c(O)cc(CCCCC)cc1O` [CBD, Cannabidiol] the Solubility in water was “insoluble in water”.

Source: patent US20210059959A1, “USE OF CANNABINOIDS IN THE TREATMENT OF MENTAL DISORDERS” (GW Pharma Limited, priority 2015, published 2021)
